Measurements reported in PubChem BioAssay AID652259 (Drosophila RNAi Screening Center, 2013)
The deposit covers about 22,000 reagents; this is a random part of those with a known target gene and a result. In the full data, 233 (1.1%) got an active call. 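Light values are raw, unnormalised plate reads; the ratio scores behind the reporter calls were not deposited.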 A number with no mark means an inactive call. Reagents against one gene are numbered here. Names joined by + are all predicted targets of the reagent. Not given: the amount of reagent, the time to read-out, the dose of the treatment.

Assay: 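Knock-downs that push a Wingless-driven reporter up or down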 (primary screen)
Cells: Drosophila clone 8 imaginal disc epithelial cells
Reagents: long dsRNA against Drosophila genes
Treatment: pathway stimulated by co-transfected Wingless expression plasmid
Read-out: 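Firefly luciferase from a tcf-site Wingless reporter, measured alongside co-transfected Renilla luciferase that tracks transfection; pathway stimulated by a Wingless plasmid; the firefly-to-Renilla ratio is not deposited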
Scale: firefly reporter light: higher = more Wg reporter light, before normalisation; Renilla control light: higher = more transfected or surviving cells
Hit rule: 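a knock-down is a candidate when at least two out of four statistical tests show it departing from its plate mean; one test alone signals a weak candidate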
Calls: active = candidate regulator (raises or lowers reporter); inactive = not a candidate

gene	dsRNA no.	reporter change call, replicate 1	firefly reporter light, replicate 1	firefly reporter light, replicate 2	Renilla control light, replicate 1	Renilla control light, replicate 2
PolE2 (GeneID 38661)	1		4418		2069	
Snmp2 (GeneID 38868)	1		2728	7866	1897	3889
Snmp2 (GeneID 38868)	2		1408	5594	1335	2100
CG32651 (GeneID 318140)	1		2819		1259	
CG8072 (GeneID 39181)	1		6438		2192	
l(2)37Cd (GeneID 35193)	1		9190		2631	
CG18132 (GeneID 33333)	1		2598	5008	1048	1618
Rrp47 (GeneID 32558)	1		29712		11155	
CHKov1 (GeneID 43067)	1		14777		8124	
CHKov1 (GeneID 43067)	2		17213		8891	
CHKov1 (GeneID 43067)	3		22629		16084	
CG14985 (GeneID 38470)	1		2105		1216	
CG14985 (GeneID 38470)	2		7336		3098	
Cyp4ac1 (GeneID 33754)	1		19232	7.46e5	8112	2.75e5
CG11788 (GeneID 37295)	1		4640		1751	
rhea (GeneID 38978)	1		1367	7424	1120	3238
Prp8 (GeneID 36304)	1		7443		1185	
Jwa (GeneID 35128)	1		13463		4822	
CG32756 (GeneID 318193)	1		3.91e5	4.98e5	99736	1.15e5
AlaRS (GeneID 34156)	1		8451		4587	
Unc-115b + p24-2	1		5336		2464	
Obp83cd (GeneID 40746)	1		16108		3605	
CG18493 (GeneID 42319)	1		12197		2347	
Lipt1 (GeneID 36795)	1		13952		10598	
CG33159 (GeneID 318901)	1		6227		844	
HP1D3csd (GeneID 32906)	1		17506		9780	
Erk7 (GeneID 31877)	1		23737		10888	
Erk7 (GeneID 31877)	2		22690		9881	
Erk7 (GeneID 31877)	3		4.86e5	4.89e5	1.54e5	1.65e5
Rab39 (GeneID 31684)	1	Wg reporter activity lowered (active)	11057		11389	
Lsm10 (GeneID 36141)	1		1955	6304	715	2712
Rab9Fb (GeneID 32029)	1		19388		9744	
CG6184 (GeneID 42345)	1		12570		2808	
MME1 (GeneID 33987)	1		11514		4708	
Ir94g (GeneID 42768)	1		22737		20873	
CG34267 (GeneID 5740365)	1		3121		1376	
ken (GeneID 37785)	1		5580		999	
obst-G (GeneID 39355)	1		5539		2370	
Bet5 (GeneID 43590)	1		9573		3493	
nod (GeneID 32107)	1		3348		884	
nod (GeneID 32107)	2		1984	4096	922	1980
stw (GeneID 35494)	1		2907	3956	758	1692
stw (GeneID 35494)	2		2217	3892	733	2163
stw (GeneID 35494)	3		6.63e5	7.34e5	1.56e5	1.21e5
RpS5a (GeneID 32700)	1		2384	6066	1008	2592
Cyp28a5 (GeneID 34817)	1		13846		2489	
spag (GeneID 43958)	1		2096	6066	391	1872
CG5282 (GeneID 40256)	1		7602		1923	
Acox57D-p (GeneID 37445)	1		10828		3341	
CG1409 (GeneID 31689)	1		25061		11004	
CG8012 (GeneID 50305)	1		2448	10344	2048	4624
CG43673 + CG43672	1		22903		8682	
CG43673 + CG43672	2		17191		6882	
CG32544 (GeneID 318082)	1		22141		8535	
CG14096 (GeneID 40113)	1		16756	7.71e5	6781	3.19e5
CG13876 (GeneID 38031)	1		5861		2700	
RpL37A (GeneID 44783)	1		5179	9077	1037	1968
CG9568 (GeneID 34227)	1		3161	6933	935	3116
CG31697 (GeneID 35243)	1		3.73e5	4.21e5	1.54e5	1.64e5
VAChT + ChAT	1		2986		1712	
CG12511 (GeneID 33797)	1		3285	8599	1409	4000
Ptx1 (GeneID 43664)	1		4760		2922	
CG13133 (GeneID 34342)	1		1943	9916	1184	4342
GC2 (GeneID 41449)	1		13943		4346	
CG14736 (GeneID 41466)	1		18952		6576	
TwdlB (GeneID 43202)	1		8675		3320	
tamo (GeneID 37864)	1		18000		5157	
nonA (GeneID 32603)	1		16887		9306	
CG33255 (retired record) + hpRNA:CR32205 + CR42838	1		4124		1592	
CG5070 (GeneID 32705)	1		18610		9957	
Rab8 (GeneID 40168)	1		8709		3880	
Proc (GeneID 250710)	1		1795	6272	169	857
FeCH (GeneID 43757)	1		1772	7088	1178	2496

Sorted by “Renilla control light, replicate 1” (lowest first): 9 of the entries above.
gene	dsRNA no.	reporter change call, replicate 1	firefly reporter light, replicate 1	firefly reporter light, replicate 2	Renilla control light, replicate 1	Renilla control light, replicate 2
CG18132 (GeneID 33333)	1		2598	5008	1048	1618
CG14985 (GeneID 38470)	1		2105		1216	
CG11788 (GeneID 37295)	1		4640		1751	
CG14985 (GeneID 38470)	2		7336		3098	
Cyp4ac1 (GeneID 33754)	1		19232	7.46e5	8112	2.75e5
CHKov1 (GeneID 43067)	1		14777		8124	
CHKov1 (GeneID 43067)	2		17213		8891	
Rrp47 (GeneID 32558)	1		29712		11155	
CHKov1 (GeneID 43067)	3		22629		16084	
